Where a chain is given by its changes, count along the chain named. Results are given in words; binding and its absence hold for the method and conditions named. For part of these data: Binding can be weak; no strength is given. Each block holds one binder with its values, some of them ahead of it.
Assays:
[1] = target: rabbit PD-L1 (Acro Biosystems, Cat #PDL-R52H6) (rabbit); test: ELISA
[2] = target: cynomolgus PD-L1-His (Sino Biological, Cat. 90251-C08H) (cynomolgus); test: ELISA, coated cyno PD-L1-His

binding [1]: no binding | binding [2]: binds
B1: 32E2 (antibody, human IgG1, V domains shown)
VH: QEQLEESGGDLVKPEGSLTLTCTASGFSFSSSYYMSWVRQAPGMGLEWIASISGGVTDNAYYASWAKGRFTVSKTSSTTVTLQLTSLTAADTATYFCARDSSSGYFFLLWGPGTLVTVSS
VL: LVMTQTPSSVSAAVGGTVTINCQASQNIYSNLAWYQQKPGQRPKLLIFGASNLRSGVPSRFKGSGSGTEYTLTISDLECADAATYYCQEGYSIGNVDNPFGGGTEVVVK

binding [1]: no binding | binding [2]: binds
B2: 33H7 (antibody, human IgG1, V domains shown)
VH: QEQLVESGGGLVQPEGSLTVTCTASGFDLSRYFYMSWVRQAPGKGLEWIASISTGSDITDYASWAKGRFTISKTSSTTVTLQMTTLTAADTAIYFCARWTSGGGGFGLWGPGTLVTVSS
VL: QVLTQTASPVSAAVGGTVTLNCQSSQSIYNNYLSWYQQRAGQPPKLLIYSTATLASGVPSRFKGSGSGTQFTLTISEIQCEDAATYYCQGYYSGYIWTFGGGTEVVVK

binding [1]: no binding | binding [2]: binds
B3: 33E8 (antibody, human IgG1, V domains shown)
VH: QSLEESGGDLVKPGASLTLTCTASGFYFSSGYDMSWVRQAPGKGLEWIASIFTTSGSTWYANWAKGRFTISKTSSTTVTLQMTSLTDADTATYFCTKDGVGSFYMNLWGPGTLVTVSS
VL: LVMTQTPASVEVAVGGTVTIKCQASQTIGSNLAWYQQRPGQPPKLLIYKAFTLASGVSSRFKGSGSGTQFTLTISGVECADAATYYCQQGATRINIDNAFGGGTEVVVK

binding [1]: no binding | binding [2]: binds
B4: 28B3 (antibody, human IgG1, V domains shown)
VH: QSVEESGGRLVTPGTPLTLSCTASGFSLSSYYMIWVRQAPGKGLEYIGYVYTGSGNTWYASWAKGRFAISKASTTVDLMITSPTTEDTATYFCASGADGVYDWGWDIWGPGTLVTVSL
VL: DIVMTQTPASVEAAVGDTVTIKCQASQSIYSLLAWYQQKPGQRPKLLIAGASNLESGVPSRFSGSGSGTEYTLTISALECADAATYYCQNNYDSGRIYGLAFGGGTEVVVK

binding [1]: no binding | binding [2]: binds
B5: 27A2 (antibody, human IgG1, V domains shown)
VH: QEQLEESGGGLVQPEGSLTLTCTASGFSFSSNHYMSWVRQAPGKGLEWIGSIGVGSGITDYASWAKGRFTISKASSTTLTLQMTTLTAADTAIYFCARWTSGGGGFGLWGPGTLVTVSS
VL: QVLTQTSSPVSAAVGGTVTINCQSSQTIYSDYLFWYQQTPGQPPKLLIYQTSTLASGVPSRFKGSGSGTEFTLTISEIQCDDAATYYCQGYYSGYIWTFGGGTEVVVR

binding [1]: no binding | binding [2]: binds
B6: 56H3 (antibody, human IgG1, V domains shown)
VH: B5 VH with E5V, G26E, S31N, H33Y, I49L, V54I, L79V
VL: B5 VL with T39K, K63S, E70Q, E77G, I78V, R108N

binding [1]: no binding | binding [2]: binds
B7: 74A9 (antibody, human IgG1, V domains shown)
VH: QSVEESGGRLVTPGTPLTLTCAVSGFSLSTYALGWVRQAPGKGLEWIGSISIGGATYYASWAKGRFTISKTSTTVDLKIASPTTEDTATYFCARNVDSIYLDAFHTWGPGTLVTVSL
VL: DIVMTQTPASVEAAVGGTVTIKCQASQNIYNNLAWYQQKPGQPPKLLIYRASTLASGVPSRFKGSGSGTEYTLTISDLECDDAATYYCQTYYLTTTTNAFGGGTEVVVK

binding [1]: no binding | binding [2]: binds
B8: 55H3/76D6 (antibody, human IgG1, V domains shown)
VH: QEQLEESGGGLVQPEGSLTLTCTVSGFSFSGDYYMSWVRQAPGKGLEWVASIYTGSLNSYYATWAKGRFTISLTSSTTVTLQMTSLTAADTATYFCARRNKNADYGHFDLWGPGTLVTVSS
VL: YDMTQTPASVEVAVGGTVTIKCQASESINDRLAWYQQKPGQPPKLLIYAASTLASGVPSRFRGSGSGTDFTLTISDLECADAATYYCQQGWTVSSLDNAFGGGTEVVAM

binding [1]: no binding | binding [2]: binds
B9: 74F4 (antibody, human IgG1, V domains shown)
VH: B8 VH with V24A, V49I, S59T
VL: B8 VL with E26Q, K38S, A49G, R62K, M109K

binding [1]: no binding | binding [2]: binds
B10: 56E5 (antibody, human IgG1, V domains shown)
VH: B8 VH with V24A, V49I, S59T, N100H
VL: B8 VL with A8G, E26Q, K38T, A49G, R62K, D69E, M109K

binding [1]: no binding | binding [2]: binds
B11: 73C8 (antibody, human IgG1, V domains shown)
VH: B8 VH with S59T
VL: B8 VL with E26Q

binding [1]: no binding | binding [2]: binds
B12: 57B10 (antibody, human IgG1, V domains shown)
VH: B8 VH with V24A, G31D, V49I, S59T, Y105W
VL: B8 VL with E26Q, N29S, D30T, R31A

binding [1]: no binding | binding [2]: binds
B13: 69D10 (antibody, human IgG1, V domains shown)
VH: B8 VH with V24A, Y33W, V49I, T54S, S59T, I71V
VL: B8 VL with E26Q, N29G, D30N, R31A, A50T, R62K, D69E, A80G, M109K

binding [1]: no binding | binding [2]: binds
B14: 62E6 (antibody, human IgG1, V domains shown)
VH: B8 VH with G10D, Q13K, V24A, V49I, S59I
VL: B8 VL with E26Q, G40R, A49G, R62K, D69E, A80V, M109K

binding [1]: no binding | binding [2]: binds
B15: 57F11 (antibody, human IgG1, V domains shown)
VH: QEHLEESGGGLVQPEGALTLTCTASGFSFSGDYYMSWVRQAPGKGLEWIASIYTGSLNTYYATWAKGRFTISIASSTTVTLQVTSLTAADTATYFCARRTKNGDYGYFDLWGPGTLVTVSS
VL: B8 VL with E26Q, R62K, D69E, D97E, M109K
